Source: paper PMC13225845

Protein sequences, listed by entry. Tags and fused reporters are not part of them.
UniProt Q09725: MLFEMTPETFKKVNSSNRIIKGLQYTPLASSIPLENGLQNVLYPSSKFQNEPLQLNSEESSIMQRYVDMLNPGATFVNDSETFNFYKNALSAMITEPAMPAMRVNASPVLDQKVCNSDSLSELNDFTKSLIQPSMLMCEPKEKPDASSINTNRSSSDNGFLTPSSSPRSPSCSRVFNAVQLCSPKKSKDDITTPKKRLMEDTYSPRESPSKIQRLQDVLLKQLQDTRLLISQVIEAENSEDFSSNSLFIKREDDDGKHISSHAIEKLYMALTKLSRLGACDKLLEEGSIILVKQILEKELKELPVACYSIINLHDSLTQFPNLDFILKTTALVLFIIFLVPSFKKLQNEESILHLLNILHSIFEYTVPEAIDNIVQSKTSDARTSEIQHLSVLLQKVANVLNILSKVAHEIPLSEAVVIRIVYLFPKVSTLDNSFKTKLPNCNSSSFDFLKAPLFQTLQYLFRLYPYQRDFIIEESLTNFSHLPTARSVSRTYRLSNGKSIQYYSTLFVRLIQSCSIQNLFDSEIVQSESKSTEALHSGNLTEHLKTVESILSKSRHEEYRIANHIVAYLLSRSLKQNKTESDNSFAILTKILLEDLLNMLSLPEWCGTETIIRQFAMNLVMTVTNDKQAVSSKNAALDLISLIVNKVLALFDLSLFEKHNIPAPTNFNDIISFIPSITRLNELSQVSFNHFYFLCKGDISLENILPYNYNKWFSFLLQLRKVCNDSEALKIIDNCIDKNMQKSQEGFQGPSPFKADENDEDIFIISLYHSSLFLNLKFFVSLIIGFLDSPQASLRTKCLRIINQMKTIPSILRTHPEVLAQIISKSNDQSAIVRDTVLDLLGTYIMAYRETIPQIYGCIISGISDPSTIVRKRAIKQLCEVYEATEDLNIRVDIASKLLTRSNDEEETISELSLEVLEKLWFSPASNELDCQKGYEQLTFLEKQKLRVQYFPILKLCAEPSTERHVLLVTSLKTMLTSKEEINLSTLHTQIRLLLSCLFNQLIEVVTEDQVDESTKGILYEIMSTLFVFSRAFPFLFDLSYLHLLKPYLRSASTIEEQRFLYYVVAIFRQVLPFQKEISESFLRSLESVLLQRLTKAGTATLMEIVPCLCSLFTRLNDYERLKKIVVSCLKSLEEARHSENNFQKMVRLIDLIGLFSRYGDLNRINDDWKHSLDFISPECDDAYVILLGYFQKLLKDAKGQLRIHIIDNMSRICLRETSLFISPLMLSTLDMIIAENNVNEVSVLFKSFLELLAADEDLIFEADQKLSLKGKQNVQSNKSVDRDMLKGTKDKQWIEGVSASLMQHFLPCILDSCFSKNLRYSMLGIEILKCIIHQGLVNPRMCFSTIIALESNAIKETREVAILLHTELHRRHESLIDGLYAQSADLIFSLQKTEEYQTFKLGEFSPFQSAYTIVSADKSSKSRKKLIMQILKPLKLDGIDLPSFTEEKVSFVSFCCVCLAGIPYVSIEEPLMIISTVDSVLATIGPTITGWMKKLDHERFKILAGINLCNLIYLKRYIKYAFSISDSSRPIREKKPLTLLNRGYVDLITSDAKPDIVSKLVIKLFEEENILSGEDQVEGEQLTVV
UniProt Q9Y7K2: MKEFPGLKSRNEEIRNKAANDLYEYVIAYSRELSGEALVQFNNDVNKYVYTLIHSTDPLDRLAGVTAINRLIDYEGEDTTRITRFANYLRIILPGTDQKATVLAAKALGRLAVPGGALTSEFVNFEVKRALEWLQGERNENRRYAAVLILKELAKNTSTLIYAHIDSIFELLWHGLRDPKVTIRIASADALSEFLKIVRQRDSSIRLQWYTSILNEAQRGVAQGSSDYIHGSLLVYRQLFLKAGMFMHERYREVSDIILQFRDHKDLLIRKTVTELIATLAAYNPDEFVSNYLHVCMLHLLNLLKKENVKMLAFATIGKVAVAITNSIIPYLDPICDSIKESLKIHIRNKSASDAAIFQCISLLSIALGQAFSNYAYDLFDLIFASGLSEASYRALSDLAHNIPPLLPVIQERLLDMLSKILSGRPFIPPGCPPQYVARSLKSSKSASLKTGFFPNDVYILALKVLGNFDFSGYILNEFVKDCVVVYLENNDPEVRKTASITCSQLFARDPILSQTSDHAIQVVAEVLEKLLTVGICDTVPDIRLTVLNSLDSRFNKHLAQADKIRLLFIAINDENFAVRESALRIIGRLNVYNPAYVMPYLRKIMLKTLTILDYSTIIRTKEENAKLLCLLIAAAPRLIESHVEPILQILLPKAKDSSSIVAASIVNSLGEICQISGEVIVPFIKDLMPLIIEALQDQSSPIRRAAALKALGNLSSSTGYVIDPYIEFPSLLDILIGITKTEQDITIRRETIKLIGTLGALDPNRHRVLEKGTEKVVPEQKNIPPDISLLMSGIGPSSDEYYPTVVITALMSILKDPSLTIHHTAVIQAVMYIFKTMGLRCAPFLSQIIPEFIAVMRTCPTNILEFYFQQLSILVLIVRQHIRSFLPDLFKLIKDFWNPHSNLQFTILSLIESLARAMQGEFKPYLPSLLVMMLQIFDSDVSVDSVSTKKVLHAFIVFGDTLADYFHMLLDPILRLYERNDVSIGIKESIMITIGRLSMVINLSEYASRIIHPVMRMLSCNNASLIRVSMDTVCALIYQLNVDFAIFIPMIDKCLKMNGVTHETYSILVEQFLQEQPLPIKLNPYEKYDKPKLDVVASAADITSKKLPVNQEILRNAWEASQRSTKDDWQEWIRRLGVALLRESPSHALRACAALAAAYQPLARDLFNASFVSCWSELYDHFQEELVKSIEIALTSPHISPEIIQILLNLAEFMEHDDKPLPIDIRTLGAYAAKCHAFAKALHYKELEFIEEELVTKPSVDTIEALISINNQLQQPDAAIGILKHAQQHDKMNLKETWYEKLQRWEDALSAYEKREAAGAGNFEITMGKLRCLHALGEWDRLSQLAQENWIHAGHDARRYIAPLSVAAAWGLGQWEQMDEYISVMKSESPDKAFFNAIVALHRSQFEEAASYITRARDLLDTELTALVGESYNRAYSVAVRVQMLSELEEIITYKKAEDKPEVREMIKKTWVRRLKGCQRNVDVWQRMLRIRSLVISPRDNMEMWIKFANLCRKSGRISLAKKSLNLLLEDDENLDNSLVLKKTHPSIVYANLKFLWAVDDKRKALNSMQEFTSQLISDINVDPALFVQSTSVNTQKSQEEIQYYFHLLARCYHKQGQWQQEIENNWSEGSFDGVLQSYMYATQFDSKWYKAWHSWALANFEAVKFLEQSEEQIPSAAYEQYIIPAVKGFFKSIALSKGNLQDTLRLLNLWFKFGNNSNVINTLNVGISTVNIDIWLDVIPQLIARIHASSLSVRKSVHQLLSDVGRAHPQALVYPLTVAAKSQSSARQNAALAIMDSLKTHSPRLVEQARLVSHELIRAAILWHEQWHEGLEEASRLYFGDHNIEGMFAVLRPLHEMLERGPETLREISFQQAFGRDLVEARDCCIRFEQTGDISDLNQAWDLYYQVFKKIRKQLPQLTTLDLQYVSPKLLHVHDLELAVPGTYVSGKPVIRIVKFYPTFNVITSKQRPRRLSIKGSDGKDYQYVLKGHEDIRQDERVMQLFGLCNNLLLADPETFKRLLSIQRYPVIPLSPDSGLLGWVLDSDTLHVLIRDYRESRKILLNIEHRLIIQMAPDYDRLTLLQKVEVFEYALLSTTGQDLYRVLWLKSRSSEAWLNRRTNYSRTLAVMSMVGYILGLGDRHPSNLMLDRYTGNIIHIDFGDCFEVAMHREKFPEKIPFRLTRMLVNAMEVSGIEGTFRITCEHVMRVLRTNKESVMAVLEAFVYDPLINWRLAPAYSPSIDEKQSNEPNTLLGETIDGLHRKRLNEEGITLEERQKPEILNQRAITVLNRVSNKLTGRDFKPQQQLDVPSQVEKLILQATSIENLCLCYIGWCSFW

Key:
[1] = biological target: Mis4-GFP (cohesin loader Mis4) (S. pombe) (UniProt Q09725); test: affinity purification with mass spectrometry; Mis4-GFP or Rad21-PK affinity-purified from protein extracts of G1-arrested cells (cdc10-129 arrest), triplicate samples, label-free mass spectrometry; repeated in mip1-R401G and pef1Δ cells
[2] = biological target: T1, Rad21-PK (cohesin kleisin subunit Rad21) (S. pombe) (UniProt P30776); test: as above
T1 sequence: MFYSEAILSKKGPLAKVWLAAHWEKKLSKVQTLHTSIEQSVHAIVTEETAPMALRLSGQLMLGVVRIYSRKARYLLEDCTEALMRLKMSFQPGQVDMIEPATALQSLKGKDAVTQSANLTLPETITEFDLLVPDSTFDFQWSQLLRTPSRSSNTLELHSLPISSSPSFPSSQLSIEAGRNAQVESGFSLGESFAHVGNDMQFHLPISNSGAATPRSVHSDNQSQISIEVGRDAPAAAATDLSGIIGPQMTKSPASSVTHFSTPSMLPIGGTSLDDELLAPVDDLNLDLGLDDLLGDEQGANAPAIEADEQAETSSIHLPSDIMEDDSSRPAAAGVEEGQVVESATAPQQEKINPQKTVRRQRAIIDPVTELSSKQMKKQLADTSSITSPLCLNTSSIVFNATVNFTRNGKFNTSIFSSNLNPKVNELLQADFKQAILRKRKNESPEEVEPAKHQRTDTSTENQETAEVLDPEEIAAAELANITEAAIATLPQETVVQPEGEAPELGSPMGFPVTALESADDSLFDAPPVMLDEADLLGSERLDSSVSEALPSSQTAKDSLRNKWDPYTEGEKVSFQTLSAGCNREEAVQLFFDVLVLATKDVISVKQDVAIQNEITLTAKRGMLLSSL

With “Tor2, the kinase subunit of TORC1 (from UniProt Q9Y7K2 1-2337)” the binding [1] was “binds” and the binding [2] was “binds”.

These are yes or no findings as the source states them, for the method shown. In cells and extracts the contact can be indirect. A yes stands for co-enrichment or nearness to the bait. Other partners may have been found.
